Laboratory results as given in PubChem BioAssay AID504834 (National Center for Advancing Translational Sciences (NCATS), 2011).
Hit rate of the full screen: of about 320,000 compounds, about 22,000 (6.9%) were called active. Inconclusive means that the source gave no clear call. Such entries were picked first, then a sample of the others. Calls come from the whole dose curve; as a rule, active = well fitted inhibition curve with a large enough effect; inconclusive = small, poorly fitted or top-dose-only effect, or another doubt; inactive = no such curve, though single readings can be large or run the other way. Potencies of inconclusive entries are doubtful fits and often do not repeat.
% is set by controls: 0 for no effect and ±100 for the full control effect; potency is the fitted concentration of half-maximal effect.

Assay: Primary qHTS for delayed death inhibitors of the malarial parasite plastid, 96 hour incubation
Details: P. falciparum luciferase reporter growth; series mostly up to 28.7 µM; activity change, negative = inhibition: at the top concentration
How it was run: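 Readout is luminescence from an integrated firefly luciferase in P. falciparum. Red cells, 2% hematocrit and 0.05% parasitemia final, were cultured with compound through two parasite generations (96 hours) at 37 C, 5% CO2.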
For O=C(Nc1ncc2c(n1)CC(c1cccc(Cl)c1)CC2=O)c1ccco1 (configuration not stated), the Potency was inconclusive: 18.5 µM [inhibitor, single point]. For COc1ccc(C2CC(C)(c3ccc(OC)cc3OC)Nc3ccccc3N2)c(OC)c1 (configuration not stated), the “activity change, negative = inhibition” value was inactive: 0%. In the case of O=C1NC(=O)[C@@H]2C3c4ccccc4C=CN3[C@H](C(=O)c3cccs3)[C@H]12 (some centres not stated), the Potency is reported as inconclusive: 11.7 µM [inhibitor, single point]. With Cc1ccn(CC(=O)N2CCCC(Nc3ccc(F)c(F)c3)C2)n1 (configuration not stated) the “activity change, negative = inhibition” value was inactive: 1.92%. With CC(c1ccccc1F)n1cc(C(=O)NCCc2ccco2)nn1 (configuration not stated) the Potency was inconclusive: 0.294 µM [inhibitor, partial curve, poor fit]. In the case of Cn1ccnc1SCC(=O)c1cccc(C(F)(F)F)c1, the “activity change, negative = inhibition” value is reported as inactive: 1.79%. For CCN1CCN(C(c2cccs2)C(C)NC(=O)Oc2ccccc2)CC1 (configuration not stated), the Potency was inconclusive: 0.0029 µM [inhibitor, full curve, poor fit]. For O=S(=O)(NC1CC1)c1ccc(Cl)cc1, the “activity change, negative = inhibition” value was inactive: 9.29%. In the case of C/C(=N/NC(=O)c1ccncc1)c1ccc2c(c1)OCO2, the Potency is reported as inconclusive: 16.5 µM [inhibitor, single point]. In the case of O=C(NC1CCCCC1NC(=O)c1ccco1)c1ccco1 (configuration not stated), the Potency is reported as inconclusive: 10.4 µM [inhibitor, single point]. In the case of Cc1onc(-c2c(Cl)cccc2Cl)c1C(=O)ONC(=O)c1ccccc1, the “activity change, negative = inhibition” value is reported as inactive: -6%. With O=C(NCc1ccc2c(c1)OCO2)c1ccc(NC(=O)C2CCCO2)cc1 (configuration not stated) the Potency was inconclusive: 8.28 µM [inhibitor, partial curve, poor fit]. In the case of Cc1ccc(-n2c(SCc3ccc(C#N)cc3)nnc2-c2ccccn2)cc1, the Potency is reported as active: 10.4 µM. For NC(=O)C1(N2CCCCC2)CCN(CC(=O)Nc2ccccc2-c2ccccc2)CC1, the Potency was inconclusive: 9.28 µM [inhibitor, single point]. For O=C(CNC(=O)c1ccccc1Cl)Nc1ccc(F)cc1, the Potency was inconclusive: 18.5 µM [inhibitor, single point]. For CC(NC(=O)c1cc(COc2ccccc2)on1)c1nccs1 (configuration not stated), the Potency was inconclusive: 7.38 µM [inhibitor, partial curve, poor fit]. With Cc1ccccc1-c1nc(CSc2nc3c(c(=O)[nH]2)CCC3)c(C)o1 the Potency was inconclusive: 0.329 µM [inhibitor, full curve, poor fit]. For COc1ccc(CNS(=O)(=O)c2cc(CN3C(=O)c4cccnc4C3=O)ccc2OC)cc1, the Potency was active: 14.7 µM. With COc1ccccc1Nc1nc2nonc2nc1N1CCCCC1C (configuration not stated) the Potency was inconclusive: 14.7 µM [inhibitor, single point]. For CCOc1ccccc1NC(=S)N1C2CCC1CC(NC(=O)NC13CC4CC(CC(C4)C1)C3)C2 (configuration not stated), the Potency was inconclusive: 14.7 µM [inhibitor, partial curve, poor fit]. With COc1ccc(CN(C)CCc2ccccn2)cc1OC the Potency was inconclusive: 11.7 µM [inhibitor, single point]. For Cc1cc(C=O)c(C)n1-c1ccc(N2CCOCC2)c([N+](=O)[O-])c1, the “activity change, negative = inhibition” value was inactive: 4.93%. For COc1ccc(S(=O)(=O)NCC(c2ccc(F)cc2)N2CCOCC2)cc1Br (configuration not stated), the “activity change, negative = inhibition” value was inactive: 57.1%. With COc1cc(OC)cc(-c2cc3nc(C)c(CCC(=O)NCc4ccccc4)c(C)n3n2)c1 the Potency was inconclusive: 4.15 µM [inhibitor, partial curve]. With CCOC(=O)N1CCN(c2ccc([N+](=O)[O-])cc2F)CC1C (configuration not stated) the Potency was inconclusive: 18.5 µM [inhibitor, single point]. For O=C(NC1CCCCCCC1)c1cc([N+](=O)[O-])ccc1Cl, the “activity change, negative = inhibition” value was inactive: 21.3%. With Cc1cc(C)cc(NC(=S)Nc2ccc(Cl)c(Cl)c2)c1 the “activity change, negative = inhibition” value was inactive: 13.2%. With NC(=O)c1ccccc1NC(=O)Nc1ccc(F)c(Cl)c1 the Potency was inconclusive: 8.28 µM [inhibitor, partial curve, poor fit]. With Clc1ccc(CSc2nnc(-c3ccncc3)s2)cc1 the “activity change, negative = inhibition” value was inactive: -23.2%. In the case of COc1ccccc1CN(C)CC(=O)Nc1cccc(S(=O)(=O)N2CCCCC2)c1, the Potency is reported as inconclusive: 11.7 µM [inhibitor, single point]. In the case of COc1ccc(-c2csc(Nc3ccc(O)cc3)n2)cc1, the “activity change, negative = inhibition” value is reported as inactive: 37.7%. In the case of O=C(CN1C(=O)NC2(CCCCC2)C1=O)NCc1ccc2c(c1)OCO2, the “activity change, negative = inhibition” value is reported as inactive: 9.49%. With CCOC(=O)[C@H]1[C@H]2COc3ccc(C)cc3[C@@H]2N2C(=O)CN(Cc3ccc(C)cc3)C(=O)[C@@]12C the Potency was inconclusive: 0.0329 µM [inhibitor, full curve, poor fit]. In the case of O=C(/C=C/c1cccc(C(F)(F)F)c1)Nc1cccc(C(F)(F)F)c1, the Potency is reported as inconclusive: 4.15 µM [inhibitor, single point]. With COc1cccc(CN2CCNC(=O)C2CC(=O)N(C)C2CCCCC2)c1 (configuration not stated) the Potency was inconclusive: 18.5 µM [inhibitor, single point]. With COCCNC(=O)c1cccc(OC2CCN(Cc3cccc(C(C)=O)c3)CC2)c1 the “activity change, negative = inhibition” value was inactive: 0%. In the case of CCOC(=O)c1csc(NNC=O)n1, the “activity change, negative = inhibition” value is reported as inactive: 40.4%. For COCc1cc(C)nc2sc(C(=O)Nc3ccccc3OC)c(N)c12, the Potency was inconclusive: 13.1 µM [inhibitor, single point]. With CC(Sc1nc2c(c(=O)[nH]1)CCCC2)C(=O)Nc1ccc(S(N)(=O)=O)cc1 (configuration not stated) the Potency was inconclusive: 9.28 µM [inhibitor, partial curve, poor fit]. With CCc1nc2sc3c(c2c(=O)n1N)CCC3 the Potency was inconclusive: 4.15 µM [inhibitor, single point]. With Cc1ccc(-c2cnn(-c3ccccc3)c2N)cc1 the “activity change, negative = inhibition” value was inactive: 412%. For O=C(COc1ccccc1)NCCc1nc2ccccc2[nH]1, the Potency was inconclusive: 14.7 µM [inhibitor, single point]. With Cc1ccc(C(=O)n2ncn(C)c2=S)cc1 the “activity change, negative = inhibition” value was inactive: 11.2%. In the case of CC(C)(C)OC(=O)CNC(=O)c1nc[nH]c1C(=O)N1CCN(c2ccccc2)CC1, the Potency is reported as inconclusive: 0.0033 µM [inhibitor, full curve, poor fit]. For CCCC(=O)N1CCN(S(=O)(=O)c2cc(Cl)ccc2OC)CC1, the “activity change, negative = inhibition” value was inactive: 50.5%. In the case of Cn1c(-c2ccc3c(c2)OCO3)cnc1NCc1cccc(Cl)c1, the Potency is reported as inconclusive: 13.1 µM [inhibitor, single point]. In the case of CC(C)c1ccc2[nH]c3c(c2c1)[C@@H]1CCN2C(=O)CCC[C@H](C3)[C@H]12, the Potency is reported as inconclusive: 18.5 µM [inhibitor, single point].
